For 2 substances, binding results are on record in publication PMC13571933, “Active transport by cytoplasmic dynein sustains dendritic MAP2 localization in developing neurons” (The Journal of Biological Chemistry, 2026).

By UniProt entry, the sequences of proteins in these tests, tags left out.
UniProt P20357: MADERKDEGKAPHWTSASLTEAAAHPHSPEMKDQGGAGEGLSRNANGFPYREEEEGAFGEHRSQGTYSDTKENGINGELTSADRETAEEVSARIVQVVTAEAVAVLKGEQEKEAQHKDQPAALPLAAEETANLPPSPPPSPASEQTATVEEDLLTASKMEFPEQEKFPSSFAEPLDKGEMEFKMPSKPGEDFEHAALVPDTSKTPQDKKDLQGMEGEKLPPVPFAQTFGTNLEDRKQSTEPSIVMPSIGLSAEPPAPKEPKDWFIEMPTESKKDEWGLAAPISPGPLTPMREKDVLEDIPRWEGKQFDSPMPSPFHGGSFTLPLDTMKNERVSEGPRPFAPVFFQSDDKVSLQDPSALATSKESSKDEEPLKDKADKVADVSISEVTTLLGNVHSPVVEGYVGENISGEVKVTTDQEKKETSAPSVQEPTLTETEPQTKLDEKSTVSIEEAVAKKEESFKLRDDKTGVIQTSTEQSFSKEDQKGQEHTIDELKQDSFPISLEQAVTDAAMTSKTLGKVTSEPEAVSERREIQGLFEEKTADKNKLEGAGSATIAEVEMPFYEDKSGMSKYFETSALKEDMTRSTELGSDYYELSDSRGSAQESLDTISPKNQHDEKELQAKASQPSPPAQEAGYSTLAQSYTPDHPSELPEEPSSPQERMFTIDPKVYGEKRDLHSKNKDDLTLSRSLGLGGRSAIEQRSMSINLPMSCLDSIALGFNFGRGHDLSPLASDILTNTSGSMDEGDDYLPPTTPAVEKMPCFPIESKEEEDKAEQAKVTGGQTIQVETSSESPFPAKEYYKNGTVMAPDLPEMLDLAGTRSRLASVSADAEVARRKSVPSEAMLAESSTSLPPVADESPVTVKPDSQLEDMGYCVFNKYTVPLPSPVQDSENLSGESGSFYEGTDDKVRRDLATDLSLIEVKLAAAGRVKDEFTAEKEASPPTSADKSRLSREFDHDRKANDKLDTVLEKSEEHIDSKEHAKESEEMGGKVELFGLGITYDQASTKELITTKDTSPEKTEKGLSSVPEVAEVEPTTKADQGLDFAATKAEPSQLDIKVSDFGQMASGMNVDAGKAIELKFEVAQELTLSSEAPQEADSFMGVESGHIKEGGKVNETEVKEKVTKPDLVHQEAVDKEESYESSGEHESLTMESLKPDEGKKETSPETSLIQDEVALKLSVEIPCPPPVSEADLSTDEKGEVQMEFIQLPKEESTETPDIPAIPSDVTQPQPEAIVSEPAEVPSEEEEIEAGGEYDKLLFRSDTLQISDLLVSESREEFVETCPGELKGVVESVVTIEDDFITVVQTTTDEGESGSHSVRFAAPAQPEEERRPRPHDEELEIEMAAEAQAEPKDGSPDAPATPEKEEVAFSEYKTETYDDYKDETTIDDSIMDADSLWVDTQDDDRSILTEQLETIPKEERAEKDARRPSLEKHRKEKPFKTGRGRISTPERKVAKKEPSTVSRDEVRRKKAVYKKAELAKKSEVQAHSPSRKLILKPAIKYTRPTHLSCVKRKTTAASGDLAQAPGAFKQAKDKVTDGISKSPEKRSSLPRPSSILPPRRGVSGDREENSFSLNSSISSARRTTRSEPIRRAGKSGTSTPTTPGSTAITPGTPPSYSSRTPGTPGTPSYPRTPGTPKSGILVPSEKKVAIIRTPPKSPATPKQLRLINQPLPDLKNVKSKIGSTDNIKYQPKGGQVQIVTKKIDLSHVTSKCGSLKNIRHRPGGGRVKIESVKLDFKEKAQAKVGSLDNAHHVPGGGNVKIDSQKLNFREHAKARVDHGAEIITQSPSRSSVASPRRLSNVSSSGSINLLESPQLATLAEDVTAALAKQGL
UniProt Q9JHU4: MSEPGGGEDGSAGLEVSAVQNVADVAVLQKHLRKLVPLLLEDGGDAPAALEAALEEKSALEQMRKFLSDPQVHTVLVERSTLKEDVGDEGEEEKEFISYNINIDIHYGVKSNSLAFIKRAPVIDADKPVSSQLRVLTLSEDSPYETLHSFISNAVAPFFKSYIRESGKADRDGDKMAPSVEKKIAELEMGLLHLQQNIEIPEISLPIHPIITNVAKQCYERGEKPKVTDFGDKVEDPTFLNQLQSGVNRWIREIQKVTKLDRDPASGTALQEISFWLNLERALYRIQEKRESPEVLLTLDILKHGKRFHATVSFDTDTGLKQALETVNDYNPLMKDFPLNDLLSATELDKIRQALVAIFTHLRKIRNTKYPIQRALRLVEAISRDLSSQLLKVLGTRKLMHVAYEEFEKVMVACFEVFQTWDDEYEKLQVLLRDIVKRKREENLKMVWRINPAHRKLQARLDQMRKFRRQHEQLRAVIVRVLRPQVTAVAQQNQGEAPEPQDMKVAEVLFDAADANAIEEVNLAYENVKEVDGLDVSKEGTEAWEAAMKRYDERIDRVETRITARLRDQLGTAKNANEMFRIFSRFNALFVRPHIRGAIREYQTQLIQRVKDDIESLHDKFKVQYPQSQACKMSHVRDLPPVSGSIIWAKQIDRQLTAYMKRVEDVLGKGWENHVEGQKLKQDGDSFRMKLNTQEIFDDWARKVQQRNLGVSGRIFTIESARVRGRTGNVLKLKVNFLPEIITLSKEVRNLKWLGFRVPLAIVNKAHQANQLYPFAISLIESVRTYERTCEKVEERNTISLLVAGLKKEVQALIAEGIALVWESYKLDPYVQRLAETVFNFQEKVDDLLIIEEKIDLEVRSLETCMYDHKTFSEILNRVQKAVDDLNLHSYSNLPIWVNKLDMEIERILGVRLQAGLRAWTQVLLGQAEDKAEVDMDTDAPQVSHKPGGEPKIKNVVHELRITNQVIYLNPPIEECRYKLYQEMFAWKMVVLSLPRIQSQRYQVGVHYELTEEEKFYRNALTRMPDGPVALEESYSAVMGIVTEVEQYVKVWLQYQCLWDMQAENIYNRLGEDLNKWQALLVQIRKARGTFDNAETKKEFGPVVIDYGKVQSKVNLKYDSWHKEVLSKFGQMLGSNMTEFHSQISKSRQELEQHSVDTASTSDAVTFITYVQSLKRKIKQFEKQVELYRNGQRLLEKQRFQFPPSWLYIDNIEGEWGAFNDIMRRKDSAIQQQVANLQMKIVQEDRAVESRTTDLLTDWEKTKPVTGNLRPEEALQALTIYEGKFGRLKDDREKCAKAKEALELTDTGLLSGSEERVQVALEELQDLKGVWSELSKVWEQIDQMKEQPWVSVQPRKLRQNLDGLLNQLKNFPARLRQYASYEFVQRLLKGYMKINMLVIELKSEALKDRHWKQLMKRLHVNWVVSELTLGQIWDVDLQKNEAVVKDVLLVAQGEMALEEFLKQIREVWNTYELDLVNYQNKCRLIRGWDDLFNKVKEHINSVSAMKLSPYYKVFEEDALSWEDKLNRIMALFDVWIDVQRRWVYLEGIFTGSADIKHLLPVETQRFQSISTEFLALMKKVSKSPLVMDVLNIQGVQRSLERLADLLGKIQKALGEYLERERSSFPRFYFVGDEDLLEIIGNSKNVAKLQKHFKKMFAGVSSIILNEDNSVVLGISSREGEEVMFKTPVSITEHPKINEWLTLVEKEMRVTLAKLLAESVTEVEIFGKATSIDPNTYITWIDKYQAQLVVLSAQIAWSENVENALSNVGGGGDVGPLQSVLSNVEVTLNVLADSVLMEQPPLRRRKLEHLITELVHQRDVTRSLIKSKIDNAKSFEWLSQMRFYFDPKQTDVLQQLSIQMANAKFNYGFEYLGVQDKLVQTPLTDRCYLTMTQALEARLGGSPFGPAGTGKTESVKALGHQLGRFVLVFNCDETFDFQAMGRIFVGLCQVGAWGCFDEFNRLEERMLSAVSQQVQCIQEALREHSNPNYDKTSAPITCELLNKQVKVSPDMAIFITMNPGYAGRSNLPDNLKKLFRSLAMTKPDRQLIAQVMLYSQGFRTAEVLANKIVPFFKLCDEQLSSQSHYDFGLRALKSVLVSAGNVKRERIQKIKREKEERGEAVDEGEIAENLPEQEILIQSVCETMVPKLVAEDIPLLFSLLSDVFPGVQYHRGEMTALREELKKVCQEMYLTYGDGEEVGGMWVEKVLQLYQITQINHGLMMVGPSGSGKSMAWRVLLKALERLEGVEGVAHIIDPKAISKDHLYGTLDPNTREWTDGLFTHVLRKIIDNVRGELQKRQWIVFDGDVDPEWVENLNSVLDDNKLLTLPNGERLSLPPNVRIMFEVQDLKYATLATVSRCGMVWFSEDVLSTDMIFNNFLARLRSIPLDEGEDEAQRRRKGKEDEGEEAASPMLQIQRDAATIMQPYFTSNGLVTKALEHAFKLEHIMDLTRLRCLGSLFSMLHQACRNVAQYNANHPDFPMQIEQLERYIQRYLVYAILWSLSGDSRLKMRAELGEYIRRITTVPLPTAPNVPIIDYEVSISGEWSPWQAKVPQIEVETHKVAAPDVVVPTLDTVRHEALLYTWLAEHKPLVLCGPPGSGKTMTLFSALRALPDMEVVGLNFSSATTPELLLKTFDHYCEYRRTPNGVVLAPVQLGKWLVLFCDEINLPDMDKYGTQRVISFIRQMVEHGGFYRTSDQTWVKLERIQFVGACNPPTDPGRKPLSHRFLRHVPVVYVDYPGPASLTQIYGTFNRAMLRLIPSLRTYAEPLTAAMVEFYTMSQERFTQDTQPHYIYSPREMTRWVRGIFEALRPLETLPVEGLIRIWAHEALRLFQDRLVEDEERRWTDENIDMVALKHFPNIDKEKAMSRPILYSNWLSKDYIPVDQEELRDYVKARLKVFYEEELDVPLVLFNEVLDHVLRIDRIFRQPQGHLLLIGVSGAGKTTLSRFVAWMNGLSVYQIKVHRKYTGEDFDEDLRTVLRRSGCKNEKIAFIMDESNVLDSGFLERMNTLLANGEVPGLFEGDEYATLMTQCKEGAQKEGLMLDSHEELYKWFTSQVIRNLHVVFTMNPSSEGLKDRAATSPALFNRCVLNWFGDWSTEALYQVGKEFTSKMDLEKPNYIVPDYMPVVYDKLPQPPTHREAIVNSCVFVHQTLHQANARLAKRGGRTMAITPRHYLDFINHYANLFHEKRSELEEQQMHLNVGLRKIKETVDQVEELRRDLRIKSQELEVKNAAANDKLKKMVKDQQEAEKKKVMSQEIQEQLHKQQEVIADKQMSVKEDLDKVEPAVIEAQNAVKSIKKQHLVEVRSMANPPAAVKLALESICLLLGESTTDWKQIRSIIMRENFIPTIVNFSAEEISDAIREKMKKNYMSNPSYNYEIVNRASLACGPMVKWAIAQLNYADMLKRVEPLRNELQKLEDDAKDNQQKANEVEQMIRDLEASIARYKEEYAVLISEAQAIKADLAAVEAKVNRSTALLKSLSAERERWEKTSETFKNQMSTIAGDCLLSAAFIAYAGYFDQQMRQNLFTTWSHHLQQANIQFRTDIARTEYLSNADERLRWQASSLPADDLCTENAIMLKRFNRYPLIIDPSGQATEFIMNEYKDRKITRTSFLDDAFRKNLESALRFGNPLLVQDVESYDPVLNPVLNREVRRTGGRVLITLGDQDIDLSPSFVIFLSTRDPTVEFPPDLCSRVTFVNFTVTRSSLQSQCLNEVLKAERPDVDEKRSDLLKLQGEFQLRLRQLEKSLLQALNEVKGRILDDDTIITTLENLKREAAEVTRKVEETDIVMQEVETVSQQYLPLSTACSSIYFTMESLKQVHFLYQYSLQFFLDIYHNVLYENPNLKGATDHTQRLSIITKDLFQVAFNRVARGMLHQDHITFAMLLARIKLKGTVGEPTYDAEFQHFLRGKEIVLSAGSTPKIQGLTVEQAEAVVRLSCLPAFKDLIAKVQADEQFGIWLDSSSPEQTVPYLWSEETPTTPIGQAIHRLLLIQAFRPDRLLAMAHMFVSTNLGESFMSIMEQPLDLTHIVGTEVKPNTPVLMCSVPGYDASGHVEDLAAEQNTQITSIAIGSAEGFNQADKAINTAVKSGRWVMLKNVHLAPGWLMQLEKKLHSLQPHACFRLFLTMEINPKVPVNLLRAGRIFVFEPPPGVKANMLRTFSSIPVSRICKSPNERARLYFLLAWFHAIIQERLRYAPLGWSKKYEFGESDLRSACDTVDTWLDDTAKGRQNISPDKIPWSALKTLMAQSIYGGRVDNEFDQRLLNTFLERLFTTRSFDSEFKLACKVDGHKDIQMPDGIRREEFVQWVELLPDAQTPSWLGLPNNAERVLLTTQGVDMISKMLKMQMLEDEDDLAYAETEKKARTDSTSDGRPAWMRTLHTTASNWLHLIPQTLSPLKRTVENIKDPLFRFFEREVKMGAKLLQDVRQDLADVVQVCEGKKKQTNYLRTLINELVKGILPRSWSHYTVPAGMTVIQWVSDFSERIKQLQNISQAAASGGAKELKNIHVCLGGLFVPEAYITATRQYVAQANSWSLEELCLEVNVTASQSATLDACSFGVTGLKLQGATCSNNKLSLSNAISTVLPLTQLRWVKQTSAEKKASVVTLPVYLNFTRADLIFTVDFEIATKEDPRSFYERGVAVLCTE

Assay [1] has as its target MAP2, long isoforms (high molecular weight MAP2), endogenous in mouse brain (mouse (endogenous in brain)) (UniProt P20357). Description: co-IP; anti-MAP2 (MAP2N) on Dynabeads Protein G; adult mouse brain lysate in microtubule stabilizing buffer (0.1 M MES pH 6.8, 10% glycerol, 0.5% Triton X-100, taxol, GTP); 30 min at 4 °C; rabbit IgG as negative control; blot for MAP2 and DHC1.

For assay [2], the target named is T1, GFP-MAP2C (human MAP2C tagged with AcGFP and 6xHis, wild type), expressed in HEK293 cells (human) (UniProt P11137).
T1 sequence: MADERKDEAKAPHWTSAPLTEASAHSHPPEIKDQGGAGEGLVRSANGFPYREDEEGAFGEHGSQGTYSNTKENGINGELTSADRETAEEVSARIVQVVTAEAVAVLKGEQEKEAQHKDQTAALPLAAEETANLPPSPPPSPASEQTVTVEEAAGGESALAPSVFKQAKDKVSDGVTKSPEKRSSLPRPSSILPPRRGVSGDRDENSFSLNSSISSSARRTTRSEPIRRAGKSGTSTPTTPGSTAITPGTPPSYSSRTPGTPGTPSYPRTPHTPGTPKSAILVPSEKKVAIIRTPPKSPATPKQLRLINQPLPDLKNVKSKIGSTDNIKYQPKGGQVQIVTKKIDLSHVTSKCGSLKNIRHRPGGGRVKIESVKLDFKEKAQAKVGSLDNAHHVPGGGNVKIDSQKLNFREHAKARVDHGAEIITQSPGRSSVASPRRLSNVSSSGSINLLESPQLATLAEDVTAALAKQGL
The experiment in a line: co-IP; anti-His antibody on Dynabeads Protein G; 500 μg lysate of HEK293 cells co-expressing DHC1 and GFP-His-MAP2C; 50 mM Hepes pH 7.4, 100 mM NaCl, 2 mM EDTA, 0.5% Triton X-100; 1 h at 4 °C; blot with anti-DHC1 and anti-GFP, bands quantified with ImageJ.

These are yes or no findings as the source states them, for the method shown. Binding seen in cells or lysates may run through a third protein. Some entries that bind do so weakly or less than the wild type. For some assays here: Tags and fused reporters may be left off the sequences shown.

With “cytoplasmic dynein heavy chain 1 (DHC1), endogenous in mouse brain (from UniProt Q9JHU4 1-4644)”, the binding result in assay [1] is “binds”. Consider “cytoplasmic dynein heavy chain 1 (DHC1), expressed from a plasmid in HEK293 cells (from UniProt Q14204 1-4646)”, for which the binding entry in assay [2] was “binds”.
